Results taken from patent US20110306636A1, “OXAZOLE PYRIDINE DERIVATIVES USEFUL AS S1P1 RECEPTOR AGONISTS” (Merck Serono SA, priority 2009, published 2011).

Amino acid sequences for entries named in this document (tags omitted). Chains listed by the source or under a name are the forms on record and can include a tag or linker. Residues count along the entry.
UniProt P21453, whole entry: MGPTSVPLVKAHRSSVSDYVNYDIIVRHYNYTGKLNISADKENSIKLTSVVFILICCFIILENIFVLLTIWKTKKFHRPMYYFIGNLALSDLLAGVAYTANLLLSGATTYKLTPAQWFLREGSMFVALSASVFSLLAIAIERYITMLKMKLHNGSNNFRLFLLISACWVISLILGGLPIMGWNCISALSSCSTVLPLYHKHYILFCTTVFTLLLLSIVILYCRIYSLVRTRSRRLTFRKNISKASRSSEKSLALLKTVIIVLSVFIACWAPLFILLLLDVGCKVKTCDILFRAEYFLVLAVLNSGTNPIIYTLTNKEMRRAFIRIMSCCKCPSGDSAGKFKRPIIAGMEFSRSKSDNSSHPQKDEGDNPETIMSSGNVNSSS
UniProt P21453, 1-382 with tags or gaps: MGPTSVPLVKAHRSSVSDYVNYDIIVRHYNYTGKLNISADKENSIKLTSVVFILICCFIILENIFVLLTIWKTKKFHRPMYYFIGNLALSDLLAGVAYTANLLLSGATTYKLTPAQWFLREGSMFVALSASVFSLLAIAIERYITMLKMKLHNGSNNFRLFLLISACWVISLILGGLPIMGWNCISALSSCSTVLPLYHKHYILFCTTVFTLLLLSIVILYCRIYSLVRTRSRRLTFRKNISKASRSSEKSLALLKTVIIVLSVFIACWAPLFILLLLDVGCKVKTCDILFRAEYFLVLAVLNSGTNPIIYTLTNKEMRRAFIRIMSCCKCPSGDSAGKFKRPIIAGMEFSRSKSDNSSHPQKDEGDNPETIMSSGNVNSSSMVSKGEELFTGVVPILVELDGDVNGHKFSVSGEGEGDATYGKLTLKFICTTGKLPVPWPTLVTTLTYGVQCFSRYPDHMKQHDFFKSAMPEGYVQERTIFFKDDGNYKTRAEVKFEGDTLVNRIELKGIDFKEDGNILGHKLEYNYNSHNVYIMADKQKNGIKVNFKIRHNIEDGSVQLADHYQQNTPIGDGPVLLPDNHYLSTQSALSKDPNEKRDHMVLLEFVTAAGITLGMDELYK
UniProt Q99500, whole entry: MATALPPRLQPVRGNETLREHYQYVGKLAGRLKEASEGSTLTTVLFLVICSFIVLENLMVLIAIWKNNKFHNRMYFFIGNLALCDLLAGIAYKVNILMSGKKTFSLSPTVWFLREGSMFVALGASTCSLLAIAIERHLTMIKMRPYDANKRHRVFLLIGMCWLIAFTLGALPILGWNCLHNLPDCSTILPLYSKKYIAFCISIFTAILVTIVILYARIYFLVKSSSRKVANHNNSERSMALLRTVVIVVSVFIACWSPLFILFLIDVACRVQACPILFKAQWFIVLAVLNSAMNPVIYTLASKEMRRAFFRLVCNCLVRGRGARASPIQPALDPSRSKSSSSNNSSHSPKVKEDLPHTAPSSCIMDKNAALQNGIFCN

Legend:
[1] = biological target: S1P1 (Homo sapiens, UniProt P21453); experiment: Receptor binding assay, [33P]sphingosine 1-phosphate competition, S1P1; conditions: tested form: HCl
Procedure: (§1) Membranes Preparation: Membranes were prepared from CHO cells expressing S1P1 or S1P3 for use in ligand and 35S-GTPγS binding studies. Cells were suspended in 50 mM TRIS, pH 7.4, 2 mM EDTA, 250 mM Sucrose (buffer A) and 1× Complete protease inhibitor cocktail (Roche), and disrupted at 4° C. by N2 decompression using a cell disruption bomb (Parr Instrument). Following centrifugation at 1000 RPM for 10 min at 4° C., the supernatant was diluted (2×) in buffer A and centrifuged again at 19000 RPM for 75 min at 4° C. The pellet was then suspended in 10 mM HEPES, pH 7.4, 1 mM EDTA, 250 mM Sucrose (Buffer B), and 1× Complete EDTA-free protease inhibitor cocktail and homogenized using a potter. Membranes were flash frozen in liquid N2 and stored at −80° C.
(§2) Receptor binding assay: [33P]sphingosine 1-phosphate (3000 Ci/mmol; American Radiolabeled Chemicals, Inc.) was added to test compounds in 20% DMSO by competition. […] Binding was performed for 60 min at RT on a shaker and bound radioactivity was measured on a PerkinElmer 1450 MicroBeta counter. […] Binding data were analyzed using the GraphPad Prism program or Genedata software.

[2] = biological target: S1P3 (Homo sapiens, UniProt Q99500); experiment: Receptor binding assay, [33P]sphingosine 1-phosphate competition, S1P3; conditions: tested form: HCl
Procedure: as §1, §2

[3] = biological target: human S1P1 Receptor fused to the green fluorescent protein (EGFP) (Homo sapiens, UniProt P21453); experiment: Internalization of S1P1 in S1P1-U2OS cells by cell imaging analysis; conditions: read-out: S1P1 Internalization EC50, 1 hour incubation, 384-well, tested form: HCl
Procedure: Cellular Functional Assays: Internalization of Sphingosine-1-Phosphate Receptor 1 (S1P1) in a Human Cell Line (U2OS) in a 384-Well Format Using a Cell Imaging Analysis.
The S1P1 internalization assay was performed in 384 well plates (Corning® 384 black with clear bottom 3712) using S1P1-U2OS cells from BioImage (C039A), a human epithelial cell line (Human Bone Osteosarcoma Epithelial Cells). These cells expressed the human S1P1 Receptor fused to the green fluorescent protein (EGFP). A standard CMV promoter (cytomegalovirus promoter) controls the expression of S1P1-EGFP and continuous expression was maintained by addition of geneticin to the culture medium.
S1P1 Receptor desensitization induced the internalization of the membrane-localized S1P1-EGFP fusion protein to endosomes, which can be monitored by cell imaging analysis.
The cells are plated in low serum medium (Dulbecco's Modified Eagle Medium (DMEM) with Glutamax-1 and high glucose, 1% Penicillin/Streptomycin, 1% Fetal Calf Serum (FCS), 0.5 mg/ml Geneticin) overnight. […]
The internalization of the receptor S1P1-EGFP is measured on Cellomics by calculating the “spot count per object” (“object” corresponds to nuclear and “spot” corresponds to S1P1-EGFP receptor). Internalization data were observed thanks to vHCS View and analyzed using Genedata® software.

## Cc1cc(-c2noc(-c3ccc(-c4ccccc4F)c(C(F)(F)F)c3)n2)cnc1NCCC(=O)O
[1]; read-out: S1P1 binding IC50 (M) (96 well-plate), 96 well-plate
  IC50: 1.09e-08 M
[1]; read-out: S1P1 binding IC50 (M) (384 well-plate), 384 well-plate
  IC50: 2.11e-08 M
[2]; read-out: S1P3 binding IC50 (M) (96 well-plate), 96 well-plate
  IC50: 9.99e-06 M
[2]; read-out: S1P3 binding IC50 (M) (384 well-plate), 384 well-plate
  IC50: 8.32e-06 M
[3]
  EC50: 125 nM

Read-outs that look alike come from different tables or passages of the source. The match of structure and compound is tentative.
